The structures given here were assigned with low confidence; some may be wrong.
Molecular target: BRD9 (Homo sapiens, UniProt Q9H8M2)
Test: HiBiT BRD9 degradation assay in 293T.166 (BRD9-HiBiT) cells
Settings: read-out: HiBiT-Degradation 293T.166 BRD9 2.0 hours (DC50), Table 2, 293T.166 cells, class symbols
Description: Selected compounds were tested in a BRD9 degradation assay using the HiBit Method.
Dulbecco's modified Eagle medium (DMEM) without phenol red and fetal bovine serum (FBS) were purchased from Gibco (Grand Island, N.Y., USA). Nano-Glo® HiBiT Lytic Assay System was purchased from Promega (Madison, Wis., USA). 293T.166 (BRD9-HiBiT) cell line, endogenously expressing BRD9 with HiBiT fusion tag via CRISPR and ectopically expressing LgBiT tag, was purchased from Promega (Madison, Wis., USA). 293T.167 (BRD7-HiBiT) cell line, endogenously expressing BRD7 with HiBiT fusion tag via CRISPR and ectopically expressing LgBiT tag, was purchased from Promega (Madison, Wis., USA). 293T.92 (BRD4-HiBiT) cell line, endogenously expressing BRD4 with HiBiT fusion tag via CRISPR and ectopically expressing LgBiT tag, was generated in-house. Cell culture flasks and 384-well microplates were acquired from VWR (Radnor, Pa., USA).
BRD9 degradation was determined based on quantification of luminescent signal using Nano-Glo® HiBiT Lytic Assay kit. Test compounds were added to the 384-well plate from a top concentration of 10 μM with 11 points, half log titration in duplicates. […] BRD7 and BRD4 degradation was similarly determined with 293T.167 cells and 293T.92 cells, respectively. […] Luminescence was acquired on EnVision™ Multilabel Reader (PerkinElmer, Santa Clara, Calif., USA).

Protein sequences, listed by entry. Tags and fused reporters are not part of them.
UniProt Q9H8M2, whole entry: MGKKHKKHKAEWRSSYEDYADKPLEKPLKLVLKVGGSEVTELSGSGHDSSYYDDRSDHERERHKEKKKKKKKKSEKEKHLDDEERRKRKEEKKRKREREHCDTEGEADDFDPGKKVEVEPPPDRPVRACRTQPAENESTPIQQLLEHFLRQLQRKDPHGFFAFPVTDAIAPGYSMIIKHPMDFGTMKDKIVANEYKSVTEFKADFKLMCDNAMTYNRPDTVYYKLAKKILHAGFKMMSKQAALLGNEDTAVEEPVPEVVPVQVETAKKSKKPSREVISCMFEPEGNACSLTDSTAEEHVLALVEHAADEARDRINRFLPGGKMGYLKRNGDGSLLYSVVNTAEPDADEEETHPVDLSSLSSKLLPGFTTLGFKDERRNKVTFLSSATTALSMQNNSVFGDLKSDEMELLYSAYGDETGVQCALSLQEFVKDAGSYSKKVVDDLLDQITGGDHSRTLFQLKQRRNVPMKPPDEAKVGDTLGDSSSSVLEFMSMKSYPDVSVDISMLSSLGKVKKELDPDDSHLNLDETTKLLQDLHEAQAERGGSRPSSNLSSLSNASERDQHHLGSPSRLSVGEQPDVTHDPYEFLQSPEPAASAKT

- DC50: < 100 nM
SMILES: Cc1c(-c2ccc(C(=O)N3CCC(N4CCN(c5ccc(NC6CCC(=O)NC6=O)cc5F)CC4)C(F)(F)C3)c(OC(F)(F)F)c2)cn(C)c(=O)c1C (single isomer, unassigned)
